The text below walks through data of PMC6113207.

Protein sequences, listed by entry. Tags and fused reporters are not part of them.
UniProt Q9H0J9: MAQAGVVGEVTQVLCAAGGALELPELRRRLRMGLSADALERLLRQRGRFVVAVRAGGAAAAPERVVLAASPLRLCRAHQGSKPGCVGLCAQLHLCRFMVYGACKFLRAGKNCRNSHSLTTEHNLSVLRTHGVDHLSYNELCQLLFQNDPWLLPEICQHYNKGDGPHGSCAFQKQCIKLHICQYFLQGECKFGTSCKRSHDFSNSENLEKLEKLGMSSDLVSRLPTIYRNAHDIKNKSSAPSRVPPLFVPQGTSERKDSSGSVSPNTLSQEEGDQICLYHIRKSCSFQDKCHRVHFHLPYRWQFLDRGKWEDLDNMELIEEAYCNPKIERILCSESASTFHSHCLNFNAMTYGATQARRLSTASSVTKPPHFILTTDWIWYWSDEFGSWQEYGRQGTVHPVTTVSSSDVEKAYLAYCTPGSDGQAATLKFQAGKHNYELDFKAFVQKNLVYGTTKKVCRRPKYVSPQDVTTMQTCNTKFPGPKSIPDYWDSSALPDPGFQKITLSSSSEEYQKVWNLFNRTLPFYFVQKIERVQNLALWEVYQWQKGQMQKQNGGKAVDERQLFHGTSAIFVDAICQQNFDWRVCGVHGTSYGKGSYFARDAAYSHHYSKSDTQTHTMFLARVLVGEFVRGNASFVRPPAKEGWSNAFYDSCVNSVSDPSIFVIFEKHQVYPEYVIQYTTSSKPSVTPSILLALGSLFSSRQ

The test has as its target streptavidin-Flag-S protein (SFB)-tagged PARP12 (human) (UniProt Q9H0J9). Kind of test: affinity purification with mass spectrometry; tandem affinity purification of SFB-PARP12 from stably expressing HEK293T cells: NETN lysate, streptavidin beads, biotin elution, S beads, 4 °C; whole lanes analysed by mass spectrometry; SFB-tag cells as negative control.

These are yes or no findings as the source states them, for the method shown. In cells and extracts the contact can be indirect. These calls come from enrichment with a bait or labelling near it, and not all partners need be listed.

B1: four-and-a-half LIM-only protein 2 (FHL2), endogenous (protein, UniProt Q14192 1-279)
chain: MTERFDCHHCNESLFGKKYILREESPYCVVCFETLFANTCEECGKPIGCDCKDLSYKDRHWHEACFHCSQCRNSLVDKPFAAKEDQLLCTDCYSNEYSSKCQECKKTIMPGTRKMEYKGSSWHETCFICHRCQQPIGTKSFIPKDNQNFCVPCYEKQHAMQCVQCKKPITTGGVTYREQPWHKECFVCTACRKQLSGQRFTARDDFAYCLNCFCDLYAKKCAGCTNPISGLGGTKYISFEERQWHNDCFNCKKCSLSLVGRGFLTERDDILCPDCGKDI
Turning to B1, the binding entry was “binds”.
